# About 280 (0.3%) of roughly 94,000 compounds were called active. The inconclusive results got no clear call from the source; some entries with a clear call stand among them for comparison.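 How the source made its calls: active means activation above 40%, about the mean plus 3 SD, also judged a hit on visual image review; inconclusive means activation above 40% but not a hit on visual review; inactive means activation not above 40% and no visual hit.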
# Assay: enhancers of NFkB p65 translocation in HUVEC – imaging, IL-1B stimulus, high-content imaging, primary screen (AID 819);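 further: percent activation is computed from the nuclear over cytoplasmic p65 intensity ratio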
# Settings: HUVEC IL-1B NFkB p65 nuclear translocation imaging; at 2 µM; stronger effect = higher value
row,SMILES,activation
1,COc1ccccc1-c1cc(C(=O)N/N=C/C=C/c2ccccc2[N+](=O)[O-])c2ccccc2n1,active: 41.9%
2,Cc1cc(C)cc(-n2c(O)c(C=NC3CCS(=O)(=O)C3)c3ccccc3c2=O)c1 (configuration not stated),inconclusive: 45.1%
3,O=C(OCc1nc(-c2ccccc2)oc1COC(=O)c1ccco1)c1ccco1,inconclusive: 43.9%
4,Cc1ccc(N2CC(C(=O)Nc3ccc(N(C)C)cc3)CC2=O)cc1C (configuration not stated),inconclusive: 76.7%
5,CCOc1cc(N2CCOCC2)c(OCC)cc1NC(=O)CSc1cccc[n+]1[O-],active: 69.6%
6,COc1cccc(NC(=O)CSc2ncnc3c2oc2ccccc23)c1,inactive: 1.82%
7,O/N=C1/CCCSc2ccccc21,active: 47.6%
8,CC(=O)NC(Cc1c[nH]c2ccccc12)C(=O)OCC(=O)Nc1ccc2c(c1)OCO2 (configuration not stated),inconclusive: 57.4%
9,O=C(CCCOc1ccc(Cl)cc1)N1CCCCCC1,inconclusive: 43%
10,CCCOC(=O)C1[C@H]2C(=O)N(Cc3ccco3)C[C@]23C=C[C@H]1O3 (some centres not stated),inconclusive: 44.5%
11,O=C(Nc1ccccc1-c1ccccc1)NC1CCN(CC(=O)N2CCOCC2)CC1,inconclusive: 46.8%
12,CC(=O)c1cccc(OCC(=O)c2cc(C)n(-c3cc(C)on3)c2C)c1,inconclusive: 58%
13,Cc1ccc(OCC(=O)N2CCN(c3nnc(-c4ccccc4)c4ccccc34)CC2)cc1,inactive: 3.35%
14,COc1cccc(C(=O)NCC(=O)N2CCC(C)CC2)c1,inconclusive: 40.2%
15,Cc1ccc(S(=O)(=O)c2nc(NC3CCS(=O)(=O)C3)sc2Cl)cc1 (configuration not stated),inconclusive: 42.2%
16,Cc1cccc2c1NC(=O)/C2=C\C(=O)c1cccs1,inactive: 1.6%
17,Cc1cc(C)cc(OCc2nnc(SCC(=O)OC(C)C)o2)c1,inactive: 5.31%
18,Cc1ccc(CCN2CC(C(=O)NCCN3CCCCCC3)CC2=O)cc1 (configuration not stated),inconclusive: 44.6%
19,O=C(CN1CCN(C(=O)c2ccco2)CC1)Nc1ccccc1-c1ccccc1,inconclusive: 45.6%
20,CC(C)CNc1nc(=S)nc(N(C)C)[nH]1,inactive: -37.2%
21,COc1cc(C2/C(=C(/O)c3ccc(OCC(C)C)cc3)C(=O)C(=O)N2CCN(C)C)ccc1O (configuration not stated),active: 41.2%
22,O=C(OCCN=C1NS(=O)(=O)c2ccccc21)C1CC(=O)N(c2ccc3ccccc3c2)C1 (configuration not stated),inconclusive: 40.9%
23,CC(Nc1ccc(Cl)cc1)c1cc(Cl)ccc1O (configuration not stated),inactive: 8.81%
24,CN(C)CCNC(=O)c1coc(=O)c(Br)c1,inconclusive: 43.8%

# Four of these compounds, reformatted.
row	SMILES	activation
13	Cc1ccc(OCC(=O)N2CCN(c3nnc(-c4ccccc4)c4ccccc34)CC2)cc1	inactive: 3.35%
14	COc1cccc(C(=O)NCC(=O)N2CCC(C)CC2)c1	inconclusive: 40.2%
15	Cc1ccc(S(=O)(=O)c2nc(NC3CCS(=O)(=O)C3)sc2Cl)cc1 (configuration not stated)	inconclusive: 42.2%
16	Cc1cccc2c1NC(=O)/C2=C\C(=O)c1cccs1	inactive: 1.6%

# Later entries.

row,SMILES,activation
1,CCN(CC)c1nc(N)c2c(N)n(-c3ccccc3C)c(=S)c(C#N)c2c1C#N,inconclusive: 42.6%
2,CSc1ccc(-c2nnn(Cc3ccc(Br)cc3)n2)cc1,active: 58.4%
3,COc1cc(OC)cc(C(=O)NC(=S)N2CCN(c3ccc(C(F)(F)F)cc3[N+](=O)[O-])CC2)c1,inconclusive: 53.2%
4,c1ccc(-c2nnc3sc(-c4ccncc4)nn23)cc1,inconclusive: 40.2%
5,COc1ccc(C2(C(=O)NCCCN3CCOCC3)CCOCC2)cc1,inactive: 10.8%
6,COc1ccc(N2CCN(C(c3cccc(OC)c3OC)c3nnnn3C3CCCC3)CC2)cc1 (configuration not stated),inactive: 8.57%
7,CC1CCN(S(=O)(=O)c2ccc(NC(=O)CN3CCN(c4ccccc4)CC3)cc2)CC1,inconclusive: 56.4%
8,c1ccc(-n2nnnc2-c2cnc(-c3ccncc3)nc2-c2cccs2)cc1,inactive: 0.81%
9,CC(C)OC(=O)CSc1nnc(CNc2cccc(Cl)c2)n1C,inactive: 1.77%
10,C(=C\c1ccccc1)/CN1CCN(c2ncnc3c2oc2ccccc23)CC1,active: 40%
11,O=S(=O)(c1cccc(S(=O)(=O)N2CCN(c3ncccn3)CC2)c1)N1CCOCC1,inconclusive: 43.3%
12,O=C1C2CCCN2C(c2ccccc2)N1c1nccs1 (configuration not stated),inconclusive: 67.1%
13,CCn1nc(C(=O)OC(C(=O)c2c[nH]c3ccccc23)c2ccccc2)c2ccccc2c1=O (configuration not stated),inactive: 23.3%
14,COC(=O)c1[nH]c2cc(C)ccc2c1NC(=O)CN1CCN(C(=O)c2ccco2)CC1,inconclusive: 46.6%
15,CC(c1ccccc1)n1cc(C(=O)NCCN2CCOCC2)nn1 (configuration not stated),active: 52.7%
16,COc1ccc(CNC(=O)C/C(C)=N/NC(=O)C(c2ccccc2)c2ccccc2)cc1,inactive: -3.69%
17,CCOc1cc(/C=C\c2[nH]c(=O)[nH]c(=O)c2[N+](=O)[O-])ccc1OC(C)CC (configuration not stated),active: 47.5%
18,O=C(/C=C/c1cccs1)c1ccc(Br)cc1,active: 107%
19,Cc1ccccc1NCCNc1ccccc1C,inactive: 20.9%
20,CCN1CCC(NC(=O)c2cc(OC)c(OC)cc2OC)CC1,inconclusive: 45.8%
21,CCCCn1c(=O)nc2n(-c3ccccc3)c3ccccc3cc-2c1=O,active: 91.8%
22,Cc1nnc(NC(=O)C2c3ccccc3Oc3ccccc32)s1,inactive: -5.09%
23,COc1ccc(NC(=O)Cn2nc3n(c2=S)CCC3)cc1,inconclusive: 59%
